According to the supplement of paper PMC9938546:
Counter-ions that a name gives are not always drawn. Some of the results follow. Part of the spread comes from offsets between plates or batches.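 HCT116-GFP, a KRAS-mutant, microsatellite-unstable human colorectal cancer line, constantly expresses green fluorescent protein; immune cells were from healthy donors. Cancer cell survival was tracked by live-cell imaging of green fluorescence, and activated immune cells by themselves reduced survival to roughly half.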

What follows are compounds tested on HCT116-GFP (assay: HCT116-GFP viability (GFP intensity) relative to untreated HCT116-GFP monoculture control, co-culture with activated PBMCs; higher = less cancer cell killing). Conditions: culture: co-culture with anti-CD3/IL2 activated PBMCs 1:1; 10 µM; 72 h.

Row | Structure (SMILES) | HCT116-GFP viability [%]
1 | CN(CCCCCCCCCCN(C)C(=O)Oc1cccc([N+](C)(C)C)c1)C(=O)Oc1cccc([N+](C)(C)C)c1 [Demecarium bromide] | 45.7
2 | CC(=O)N(CC(O)CO)c1c(I)c(C(=O)NCC(O)CO)c(I)c(C(=O)NCC(O)CO)c1I (centres undefined) [Iohexol] | 31.5
3 | Cn1c(=O)c2c(ncn2CC2OCCO2)n(C)c1=O [Doxofylline] | 80.3
4 | Cc1cc(O)c(C(=O)N[C@@H](C(=O)N[C@@H]2C(=O)N3C(C(=O)O)=C(CSc4nnnn4C)CS[C@H]23)c2ccc(O)cc2)cn1 [Cefpiramide] | 34.8
5 | CC(=O)O[C@]1(C(C)=O)CC[C@H]2[C@@H]3C=C(Cl)C4=CC(=O)CC[C@]4(C)[C@H]3CC[C@@]21C [Chlormadinone acetate] | 55.6
6 | CCCNC(=O)NS(=O)(=O)c1ccc(Cl)cc1 [Chlorpropamide] | 46
7 | CCN(CC)C(C)CN1c2ccccc2Sc2ccccc21 (centres undefined) [Ethopropazine hydrochloride] | 78.3
8 | O=C1[C@H]2CCCC[C@H]2C(=O)N1CCCCN1CCN(c2nsc3ccccc23)CC1 [Perospirone] | 52.3
9 | Clc1cccc(Cl)c1NC1=NCCN1 [Clonidine hydrochloride] | 46
10 | CO[C@H]1/C=C/O[C@@]2(C)Oc3c(C)c(O)c4c(O)c(c5c(nc6cc(C)ccn65)c4c3C2=O)NC(=O)/C(C)=C\C=C\[C@H](C)[C@H](O)[C@@H](C)[C@@H](O)[C@@H](C)[C@H](OC(C)=O)[C@@H]1C [Rifaximin] | 35.1
11 | Nc1nc2c(ncn2COC(CO)CO)c(=O)[nH]1 [Ganciclovir] | 62.7
12 | CN(C)C(=N)NC(=N)N [Metformin hydrochloride] | 34.1
13 | NCCCCCC(=O)O [Aminocaproic acid] | 71.8
14 | CNCCc1ccccn1 [Betahistine mesylate] | 36.1
15 | CC=CC(=O)N(CC)c1ccccc1C [Crotamiton] | 73.9
16 | O=C(c1ccc(F)cc1)C1CCN(CCn2c(=O)[nH]c3ccccc3c2=O)CC1 [Ketanserin tartrate hydrate] | 38.1
17 | CCN(CC)C(=O)c1ccc(O)c(OC)c1 [Ethamivan] | 47.1
18 | Cc1[nH]cnc1CN1CCc2c(c3ccccc3n2C)C1=O [Alosetron hydrochloride] | 5.36
19 | CCCOc1ccc2[nH]c(NC(=O)OC)nc2c1 [Oxibendazol] | 1.93
20 | CN(CCCN1c2ccccc2CCc2ccccc21)CC(=O)c1ccc(Cl)cc1 [Lofepramine] | 45.8
21 | CN(C)CCOC(c1ccccc1)c1ccccc1.Cn1c(=O)c2[nH]c(Cl)nc2n(C)c1=O [Dimenhydrinate] | 37.8
22 | O=C1NCC2(CCN(CCc3ccccc3)CC2)O1 [Fenspiride hydrochloride] | 54.9
23 | Clc1ccc2c(c1)CCc1cccnc1C2=C1CCNCC1 [Desloratadine] | 21.2
24 | COc1ccc(CC2c3cc(OC)c(OC)cc3CC[N+]2(C)CCC(=O)OCCCCCOC(=O)CC[N+]2(C)CCc3cc(OC)c(OC)cc3C2Cc2ccc(OC)c(OC)c2)cc1OC (centres undefined) [Atracurium besylate] | 38.2
25 | CC(=O)[C@H]1CC[C@H]2[C@@H]3CC=C4C[C@@H](O)CC[C@]4(C)[C@H]3CC[C@]12C [Pregnenolone] | 33.4

Row | Structure (SMILES) | HCT116-GFP viability [%]
26 | CCN(CCO)CCCC(C)Nc1ccnc2cc(Cl)ccc12 (centres undefined) [Hydroxychloroquine sulfate] | 67.6
27 | CCCCN1CCCCC1C(=O)Nc1c(C)cccc1C (centres undefined) [Bupivacaine hydrochloride] | 35.9
28 | CCOC(=O)NNc1nncc2ccccc12 [Todralazine hydrochloride] | 57.6
29 | CC(C)(C)c1ccc(C(O)CCCN2CCC(C(O)(c3ccccc3)c3ccccc3)CC2)cc1 (centres undefined) [Terfenadine] | 0.925
30 | CC(COc1ccccc1)NC(C)C(O)c1ccc(O)cc1 (centres undefined) [Isoxsuprine hydrochloride] | 59.2
31 | Nc1ccc(S(=O)(=O)Nc2ccccn2)cc1 [Sulfapyridine] | 77.5
32 | COc1ccnc(C[S+]([O-])c2nc3cc(OC(F)F)ccc3[nH]2)c1OC (centres undefined) [Pantoprazole sodium] | 52
33 | Nc1ccn([C@@H]2O[C@H](CO)[C@@H](O)[C@@H]2O)c(=O)n1 [Cytarabine] | 6.54
34 | C[C@@H]1C[C@H]2[C@@H]3C[C@H](F)C4=CC(=O)C=C[C@]4(C)[C@@]3(F)[C@@H](O)C[C@]2(C)[C@@]1(O)C(=O)COC(=O)C(C)(C)C [Flumethasone pivalate] | 44.3
35 | CCOc1ccccc1OC(c1ccccc1)C1CNCCO1 (centres undefined) [Reboxetine mesylate] | 59.6
36 | CN(C)CCCN1c2ccccc2Sc2ccc(Cl)cc21 [Chlorpromazine hydrochloride] | 9.43
37 | CN(C)c1ccc(O)c2c1C[C@H]1C[C@H]3[C@H](N(C)C)C(O)=C(C(N)=O)C(=O)[C@@]3(O)C(O)=C1C2=O [Minocycline hydrochloride] | 48.1
38 | Cc1ccsc1/C=C/C1=NCCCN1C [Morantel tartrate] | 42.2
39 | Nc1nc(NC2CC2)c2ncn([C@H]3C=C[C@@H](CO)C3)c2n1 [Abacavir Sulfate] | 60.3
40 | O=C(COc1ccc(Cl)cc1)N1CCN(Cc2ccc3c(c2)OCO3)CC1 [Fipexide hydrochloride] | 40.2
41 | CNC(C)CCC=C(C)C (centres undefined) [Isometheptene mucate] | 29.7
42 | CN(Cc1cnc2nc(N)nc(N)c2n1)c1ccc(C(=O)N[C@@H](CCC(=O)O)C(=O)O)cc1 [Methotrexate] | 12.2
43 | CN(Cc1cnc2nc(N)nc(N)c2n1)c1ccc(C(=O)N[C@@H](CCC(=O)O)C(=O)O)cc1 (racemic) [Amethopterin (R,S)] | 20.2
44 | CCN(CC)CCNc1ccc(CO)c2sc3ccccc3c(=O)c12 [Hycanthone] | 17.5
45 | OC(CCCN1CCCCC1)(c1ccccc1)c1ccccc1 [Diphenidol hydrochloride] | 44.8
46 | CCN(CC)CCOC(=O)C(c1ccccc1)c1ccccc1 [Adiphenine hydrochloride] | 64.5
47 | CCOC(=O)c1ccc(N)cc1 [Benzocaine] | 74.8
48 | C[C@]12CC[C@@H]3c4ccc(OS(=O)(=O)O)cc4CC[C@H]3[C@@H]1CCC2=O [Estropipate] | 64.1
49 | COc1cccc(OC)c1C(=O)N[C@@H]1C(=O)N2[C@@H]1SC(C)(C)[C@@H]2C(=O)O [Methicillin sodium] | 45.5
50 | Cc1ccc(S(=O)(=O)NC(=O)NN2CCCCCC2)cc1 [Tolazamide] | 50

Taken from above.
Under HCT116-GFP viability [%], CCN(CC)C(C)CN1c2ccccc2Sc2ccccc21 (centres undefined) [Ethopropazine hydrochloride] reads 78.3
Under HCT116-GFP viability [%], CN(Cc1cnc2nc(N)nc(N)c2n1)c1ccc(C(=O)N[C@@H](CCC(=O)O)C(=O)O)cc1 [Methotrexate] reads 12.2
Under HCT116-GFP viability [%], CCOC(=O)NNc1nncc2ccccc12 [Todralazine hydrochloride] reads 57.6

Remaining list, next part.

Row | Structure (SMILES) | HCT116-GFP viability [%]
51 | CCCCC1(COC(=O)CCC(=O)O)C(=O)N(c2ccccc2)N(c2ccccc2)C1=O [Suxibuzone] | 66.4
52 | COc1cc(NC(C)CCCN)c2ncccc2c1 (centres undefined) [Primaquine diphosphate] | 2.39
53 | CCCCNc1c(C(=O)OCC)c(C)nc2c1cnn2CC [Tracazolate hydrochloride] | 56.7
54 | COc1cc(-c2ccc(=O)[nH]n2)ccc1OC(F)F [Zardaverine] | 58.1
55 | CSc1ccc2c(c1)N(CCC1CCCCN1C)c1ccccc1S2 (centres undefined) [Thioridazine hydrochloride] | 38.4
56 | CC1=C(/C=C/C(C)=C/C=C/C(C)=C\C(=O)O)C(C)(C)CCC1 [Isotretinoin] | 51.4
57 | CC/C(=C(/CC)c1ccc(O)cc1)c1ccc(O)cc1 [Diethylstilbestrol] | 55.9
58 | Cc1cc(-c2ccccc2)nnc1NCCN1CCOCC1 [Minaprine dihydrochloride] | 39.3
59 | NC(N)=Nc1nc(CSCC/C(N)=N/S(N)(=O)=O)cs1 [Famotidine] | 39.1
60 | CN(C)[C@@H]1C(O)=C(C(N)=O)C(=O)[C@@]2(O)C(O)=C3C(=O)c4c(O)cccc4[C@@](C)(O)[C@H]3[C@H](O)[C@@H]12 [Oxytetracycline dihydrate] | 38.7
61 | CC(CN(C)C)CN1c2ccccc2Sc2ccccc21 (centres undefined) [Trimeprazine tartrate] | 77.6
62 | CC1(C)[C@@H](OC(=O)CCC(=O)O)CC[C@]2(C)[C@H]3C(=O)C=C4[C@@H]5C[C@@](C)(C(=O)O)CC[C@]5(C)CC[C@@]4(C)[C@]3(C)CC[C@@H]12 [Carbenoxolone disodium salt] | 76.5
63 | N=C(N)NCCN1CCCCCCC1 [Guanethidine sulfate] | 37.5
64 | C#C[C@]1(O)CC[C@H]2[C@@H]3CCC4=CC(=O)CC[C@@H]4[C@H]3CC[C@@]21CC [Norgestrel-(-)-D] | 74.7
65 | C=CCOC(Cn1ccnc1)c1ccc(Cl)cc1Cl (centres undefined) [Enilconazole] | 34.1
66 | CC(=O)OCC(=O)[C@@]1(OC(C)=O)[C@@H](C)C[C@H]2[C@@H]3C[C@H](F)C4=CC(=O)C=C[C@]4(C)[C@@]3(F)[C@@H](O)C[C@@]21C [Diflorasone Diacetate] | 88.4
67 | CC(CN(C)C)C(C)(O)Cc1ccc(Cl)cc1 (centres undefined) [Clobutinol hydrochloride] | 54.8
68 | C[C@]1(Cn2ccnn2)[C@H](C(=O)O)N2C(=O)C[C@H]2S1(=O)=O [Tazobactam] | 57.3
69 | CC[C@@H](CO)NCCN[C@@H](CC)CO [Ethambutol dihydrochloride] | 49.4
70 | CCCOc1ccc(C(=O)OCCN(CC)CC)cc1N [Proparacaine hydrochloride] | 71.5
71 | C=CCSCC1Nc2cc(Cl)c(S(N)(=O)=O)cc2S(=O)(=O)N1 (centres undefined) [Althiazide] | 95.6
72 | c1ccc(CN(CC2=NCCN2)c2ccccc2)cc1 [Antazoline hydrochloride] | 50.3
73 | CN(C)CC/C=C1/c2ccccc2COc2ccc(CC(=O)O)cc21 [Olopatadine hydrochloride] | 28.8
74 | CC(C(=O)O)c1ccc(C(=O)c2ccccc2)s1 (centres undefined) [Tiaprofenic acid] | 32.3
